The values below come from PMC11151565.

Results are given in words; binding and its absence hold for the method and conditions named. For part of these data: A result given as binding can be weak or reduced; the word gives no strength. For part of these data: In cells and extracts the contact can be indirect. For part of these data: Tags and fused reporters may be left off the sequences shown.

The target of test [1] is OsFTL10 (Flowering Locus T-like 10), full-length coding sequence in pGBKT7 (O. sativa L. ssp. japonica (Nipponbare)). Kind of test: two-hybrid; FTL9 or FTL10 in pGBKT7, FD1 or GF14c in pGADT7; yeast strain AH109; growth on SD/-Leu/-Trp/-His/-Ade after about 4 days at 30 °C.
Test [2] has as its target OsFTL9 (Flowering Locus T-like 9), full-length coding sequence in pGBKT7 (O. sativa L. ssp. japonica (Nipponbare)). The description is as above.
Test [3] has as its target OsFTL10, full-length coding sequence fused to an enhanced YFP fragment (BiFC) (O. sativa (rice)). Kind of test: split reporter; BiFC with N- and C-terminal enhanced YFP fragments, transiently co-expressed in N. benthamiana leaves; YFP read by confocal microscopy after 2-3 days; empty N-YFP and C-YFP vectors as negative controls.

B1: OsGF14c, full-length coding sequence in pGADT7 (protein, UniProt Q6ZKC0 1-256)
chain: MSREENVYMAKLAEQAERYEEMVEYMEKVAKTVDVEELTVEERNLLSVAYKNVIGARRASWRIVSSIEQKEEGRGNEEHVTLIKEYRGKIEAELSKICDGILKLLDSHLVPSSTAAESKVFYLKMKGDYHRYLAEFKTGAERKEAAESTMVAYKAAQDIALADLAPTHPIRLGLALNFSVFYYEILNSPDKACNLAKQAFDEAISELDTLGEESYKDSTLIMQLLRDNLTLWTSDLTEDGGDEVKEASKGDACEGQ
Consider B1, for which the values for the binding result in test [1] and in test [2] were “binds” and “no binding”, respectively.

B2: OsGF14c, full-length coding sequence fused to an enhanced YFP fragment (BiFC) (protein, UniProt Q6ZKC0 1-256)
chain: MSREENVYMAKLAEQAERYEEMVEYMEKVAKTVDVEELTVEERNLLSVAYKNVIGARRASWRIVSSIEQKEEGRGNEEHVTLIKEYRGKIEAELSKICDGILKLLDSHLVPSSTAAESKVFYLKMKGDYHRYLAEFKTGAERKEAAESTMVAYKAAQDIALADLAPTHPIRLGLALNFSVFYYEILNSPDKACNLAKQAFDEAISELDTLGEESYKDSTLIMQLLRDNLTLWTSDLTEDGGDEVKEASKGDACEGQ
Take B2: the binding result in test [3] is given as “binds”.
